Paper PMC5469476
These are yes or no findings as the source states them, for the method shown. Some results given as binding are weak or reduced against the parent protein; the word gives no strength. Where a sequence is shown, tags or fusion partners need not be part of it.

Biological target: T1, human glucagon-like peptide-1 receptor (GLP1R) with C-terminal 1D4 epitope, purified in nanodiscs (GLP1R-ND) (human), P43220
T1 chain: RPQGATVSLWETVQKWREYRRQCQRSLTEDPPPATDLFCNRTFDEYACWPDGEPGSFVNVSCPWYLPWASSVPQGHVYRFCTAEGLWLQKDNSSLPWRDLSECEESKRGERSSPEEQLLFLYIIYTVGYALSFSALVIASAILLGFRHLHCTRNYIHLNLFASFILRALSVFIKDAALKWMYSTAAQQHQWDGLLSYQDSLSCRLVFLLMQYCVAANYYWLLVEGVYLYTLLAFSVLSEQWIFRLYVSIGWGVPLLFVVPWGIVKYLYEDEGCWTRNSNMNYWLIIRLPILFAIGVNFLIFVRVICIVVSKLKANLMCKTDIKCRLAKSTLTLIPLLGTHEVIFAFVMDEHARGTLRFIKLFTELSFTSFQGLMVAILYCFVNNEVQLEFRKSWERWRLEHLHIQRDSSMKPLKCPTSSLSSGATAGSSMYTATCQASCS
Assay: SDS-PAGE and western blot (SDS-resistant band); HEK293S cells stably transfected with GLP1R, induced; blot with 1D4 antibody; bands at ~50 kDa and ~100 kDa
Details: remark: other sources report otherwise

B1: human glucagon-like peptide-1 receptor (GLP1R) with C-terminal 1D4 epitope, purified in nanodiscs (GLP1R-ND), P43220 24-463 (receptor)
chain: T1 chain
binding: binds
